Results are given in words; binding and its absence hold for the method and conditions named. Binding seen in cells or lysates may run through a third protein. Some binding calls cover weakened binding; strength is not graded here.
Assays:
SFB-LATS1 = target: T1, SFB-LATS1 (UniProt O95835); assay: co-IP; SFB-LATS1, HA-NF2 and LncRIM co-transfected into MCF-7 cells with or without FAC (200 uM) for 24 h; SFB-LATS1 immunoprecipitated by Flag beads
T1 sequence: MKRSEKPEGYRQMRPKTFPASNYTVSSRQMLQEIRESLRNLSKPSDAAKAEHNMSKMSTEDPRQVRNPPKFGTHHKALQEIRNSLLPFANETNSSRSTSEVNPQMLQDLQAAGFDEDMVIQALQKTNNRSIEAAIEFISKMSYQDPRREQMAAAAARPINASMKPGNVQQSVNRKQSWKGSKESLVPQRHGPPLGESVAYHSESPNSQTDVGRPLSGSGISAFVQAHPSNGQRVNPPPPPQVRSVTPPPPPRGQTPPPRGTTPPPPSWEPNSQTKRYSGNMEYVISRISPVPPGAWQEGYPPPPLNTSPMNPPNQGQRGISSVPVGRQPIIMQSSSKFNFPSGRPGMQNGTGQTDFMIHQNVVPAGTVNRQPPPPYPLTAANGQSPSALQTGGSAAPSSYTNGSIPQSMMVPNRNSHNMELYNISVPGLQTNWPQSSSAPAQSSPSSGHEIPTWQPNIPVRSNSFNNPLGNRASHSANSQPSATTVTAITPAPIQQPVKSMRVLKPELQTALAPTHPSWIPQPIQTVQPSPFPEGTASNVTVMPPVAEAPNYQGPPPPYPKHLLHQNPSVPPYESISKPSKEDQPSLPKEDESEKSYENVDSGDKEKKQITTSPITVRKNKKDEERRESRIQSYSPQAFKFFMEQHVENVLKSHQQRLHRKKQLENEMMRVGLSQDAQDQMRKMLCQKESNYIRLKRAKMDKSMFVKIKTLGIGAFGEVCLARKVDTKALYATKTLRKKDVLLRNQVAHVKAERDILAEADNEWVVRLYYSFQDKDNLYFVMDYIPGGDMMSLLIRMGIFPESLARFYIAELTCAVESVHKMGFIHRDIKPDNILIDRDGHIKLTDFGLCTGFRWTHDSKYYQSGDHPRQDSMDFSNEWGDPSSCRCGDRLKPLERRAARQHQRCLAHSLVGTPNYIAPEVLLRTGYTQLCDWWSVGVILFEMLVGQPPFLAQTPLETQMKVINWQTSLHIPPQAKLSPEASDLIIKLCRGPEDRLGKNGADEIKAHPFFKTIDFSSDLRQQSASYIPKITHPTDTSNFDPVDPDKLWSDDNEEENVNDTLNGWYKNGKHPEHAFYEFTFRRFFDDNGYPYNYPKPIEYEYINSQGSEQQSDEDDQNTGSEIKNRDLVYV

The chains behind the UniProt entries cited, without tags or fusion partners.
UniProt P35240: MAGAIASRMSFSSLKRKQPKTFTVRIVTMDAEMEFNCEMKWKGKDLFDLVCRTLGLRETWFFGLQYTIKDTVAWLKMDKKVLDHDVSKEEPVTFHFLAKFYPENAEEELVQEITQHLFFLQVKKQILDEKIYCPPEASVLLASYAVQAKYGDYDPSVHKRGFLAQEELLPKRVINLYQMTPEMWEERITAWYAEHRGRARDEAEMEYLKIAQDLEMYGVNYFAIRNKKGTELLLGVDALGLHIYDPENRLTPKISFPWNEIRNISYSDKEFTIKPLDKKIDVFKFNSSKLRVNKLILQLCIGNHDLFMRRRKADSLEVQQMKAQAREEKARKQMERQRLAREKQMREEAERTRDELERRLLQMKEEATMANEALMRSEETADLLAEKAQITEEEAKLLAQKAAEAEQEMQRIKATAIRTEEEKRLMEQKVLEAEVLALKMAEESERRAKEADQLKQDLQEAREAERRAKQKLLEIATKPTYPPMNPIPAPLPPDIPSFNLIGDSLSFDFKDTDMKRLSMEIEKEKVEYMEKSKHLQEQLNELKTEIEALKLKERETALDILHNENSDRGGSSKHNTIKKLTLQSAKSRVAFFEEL

LATS1 = target: T2, LATS1 (UniProt O95835); assay: co-IP; MCF-7 cell lysates in NETN buffer; cells with LncRIM overexpressed, knocked down, or knocked down and restored with LncRIM truncations (S1, S2, S3)
T2 sequence: T1 sequence

Row | binding (SFB-LATS1) | binding (LATS1) | Substance
1 | binds |  | HA-NF2 (from UniProt P35240 1-595)
2 |  | binds | NF2 (from UniProt P35240 1-595)

— paper PMC10119135
